Test results published in PubChem BioAssay AID2551 (National Center for Advancing Translational Sciences (NCATS), 2010).
“And” between values parts separate entries of the source, which are not always exact repeats. Identical values can stand only once. Hit rate of the full screen: of about 310,000 compounds, about 17,000 (5.5%) were called active. Inconclusive results, whose numbers are uncertain, are shown with a selection of clear calls. Calls come from the whole dose curve; as a rule, active = well fitted inhibition curve with a large enough effect; inconclusive = small, poorly fitted or top-dose-only effect, or effect the other way; inactive = no such curve, though single readings can be large or run the other way. Potencies of inconclusive entries are doubtful fits and often do not repeat.

The chains behind the UniProt entries cited, without tags or fusion partners. Where a name states a change or a piece, a line headed by the entry shows the natural chain unless it says otherwise.
UniProt P51450: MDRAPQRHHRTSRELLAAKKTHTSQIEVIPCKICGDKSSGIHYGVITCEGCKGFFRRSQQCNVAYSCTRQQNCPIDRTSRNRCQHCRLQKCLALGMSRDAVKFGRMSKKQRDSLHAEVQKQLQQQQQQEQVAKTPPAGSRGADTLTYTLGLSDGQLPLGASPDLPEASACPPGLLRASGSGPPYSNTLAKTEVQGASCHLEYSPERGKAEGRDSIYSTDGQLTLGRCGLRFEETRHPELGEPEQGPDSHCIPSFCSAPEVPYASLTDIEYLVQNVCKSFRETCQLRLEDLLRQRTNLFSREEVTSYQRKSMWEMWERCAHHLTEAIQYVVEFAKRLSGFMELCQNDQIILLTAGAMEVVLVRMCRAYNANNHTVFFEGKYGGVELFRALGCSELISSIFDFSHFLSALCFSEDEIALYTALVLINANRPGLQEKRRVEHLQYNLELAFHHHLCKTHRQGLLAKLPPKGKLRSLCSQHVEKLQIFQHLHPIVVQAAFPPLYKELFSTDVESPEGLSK

The compounds below were run against Nuclear receptor ROR-gamma (Mus musculus) (UniProt P51450) (assay: qHTS for inhibitors of ROR gamma transcriptional activity). Conditions: Drosophila S2 Gal4-RORgamma UAS-luciferase reporter, 20 h; series mostly up to 53.6 µM.
Method in brief: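 A Gal4/UAS one-hybrid system in insect cells: metallothionein-promoter Gal4–ROR gamma fusion plus Photinus luciferase reporter. Copper sulfate 700 uM final, 20 hr ambient incubation, luminescent detection after 10 min with reagent.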
Note: nearly all actives have a fitted effect of over 60% in size.
Potency is the fitted concentration of half-maximal effect.

| Structure (SMILES) | Potency |
| --- | --- |
| CSc1nsc(SCc2ccc(F)cc2)n1 | inconclusive: 10 µM [activator, partial curve] |
| Cc1cc(NC(=O)CSc2nnc(CNC(=O)c3cccc(C(F)(F)F)c3)o2)no1 | inactive |
| Cc1ccccc1S(=O)(=O)Nc1nc2ccccc2nc1Cl | inconclusive: 2.82 µM [activator, partial curve, poor fit] |
| O=C(NCCc1ccco1)c1cc(COc2cccc(C(F)(F)F)c2)on1 | inconclusive: 35.5 µM [activator, single point] |
| C=CCn1c(CSc2nc3ccccc3s2)nnc1SCC(=O)NCc1cccnc1 | inconclusive: 2 µM [inhibitor, partial curve, poor fit] |
| CCS(=O)(=O)c1ccc2oc(SCC(=O)c3ccco3)nc2c1 | inconclusive: 22.4 µM [activator, single point] |
| Cc1nc2cc(-c3ccccc3)[nH]n2c(=O)c1C | inconclusive: 14.1 µM [inhibitor, partial curve, poor fit] |
| Cc1cccc(-n2nnc(C(=O)NCc3ccccc3)c2N)c1 | inconclusive: 14.1 µM [activator, single point] |
| O=C(CCCO)NNc1c2ccccc2nc2ccccc12 | inconclusive: 22.4 µM [inhibitor, single point] |
| Cc1cc(C)c(N2C(=O)C3C4CC(=O)C(c5ccccc54)C3C2=O)c(C)c1 (stereo not given) | inactive |
| COc1cc(/C=N/N=C2/NC(=O)C(CC(=O)O)S2)ccc1OCc1ccc(Cl)cc1 (stereo not given) | inconclusive: 11.2 µM [activator, partial curve] |
| CC(=O)N(/N=C1\Sc2ccccc2C1=O)c1ccc(C)cc1C | inconclusive: 1.26 µM [inhibitor, partial curve] |
| COC(=O)N1C(=O)[C@@](c2ccccc2)(C(C)C)N1C(=O)OC | active: 10 µM |
| Cc1cc(Cl)ccc1OC(C)C(=O)Nc1ccc(S(=O)(=O)Nc2cnc3ccccc3n2)cc1 (stereo not given) | inconclusive: 35.5 µM [activator, single point] |
| O=C(CCn1ccc([N+](=O)[O-])n1)Nc1nccs1 | inactive |
| CCn1cc(C(=O)NC(=S)Nc2ccccc2[N+](=O)[O-])cn1 | inconclusive: 22.4 µM [inhibitor, single point] |
| COc1cc(OC)c(OC)cc1/C=C/C(=O)c1ccc(NS(=O)(=O)c2ccc(C)cc2)cc1 | inconclusive: 12.6 µM [activator, partial curve] |
| CN1C(=O)C2(Oc3ccccc3C3CC(c4ccccc4)=NN32)c2ccccc21 (stereo not given) | inactive |
| CC(=O)c1cccc(NC(=O)Nc2ccc(C(=O)N3CCOCC3)cc2)c1 | inconclusive: 0.0056 µM [inhibitor, full curve, poor fit] |
| Cc1ccc(S(=O)(=O)Nc2ccc3nc(C)sc3c2)cc1 | inconclusive: 12.6 µM [activator, partial curve] |
| CC(C)(C)C(=O)Nc1ccc(-c2cn3ccsc3n2)cc1 | active: 4.47 µM |
| CCN1CSC(=S)N(Cc2ccc(OC)cc2)C1 | active: 14.1 µM |
| O=C(CCC(=O)c1ccc(Oc2ccccc2)cc1)Nc1ccc(Cl)cc1Cl | inactive |

| Structure (SMILES) | Potency |
| --- | --- |
| CCc1sc(C(=O)NCc2cc(C)n(C)n2)cc1Br | inconclusive: 22.4 µM [activator, single point] |
| Cc1oc(-c2ccoc2)nc1CN(Cc1ccccc1)CC1CC1 | inconclusive: 11.2 µM [inhibitor, single point] |
| COc1ccc2c(CC(=O)NCc3ccc4c(c3)OCO4)coc2c1 | inconclusive: 17.8 µM [activator, partial curve, poor fit] |
| C/C(=N/NC(=O)c1cccs1)c1cccc(N)c1 | inconclusive: 22.4 µM [inhibitor, single point] |
| Cc1ccc(-c2nnn(CC(=O)N(Cc3cccs3)C(C(=O)NC3CCCC3)c3ccncc3)n2)cc1 (stereo not given) | inconclusive: 3.16 µM [activator, single point] |
| CCOc1ccc(-c2nnc(-c3ccncc3)o2)cc1 | active: 12.6 µM |
| Cc1ccccc1NC(=O)C1CCCN(S(=O)(=O)c2ccc(-n3cnnn3)cc2)C1 (stereo not given) | inconclusive: 11.2 µM [activator, partial curve] |
| Cc1ccc(/C=c2\sc3nc(-c4ccccc4Br)nn3c2=O)o1 | inactive |
| O=C(Oc1ccccc1)N1CCC[C@@]2(CCN(c3ccccn3)C2)C1 | inactive |
| O/N=C\c1ccc(-c2ccccc2)o1 | inactive |
| O=C(Oc1ccc(Cl)c2cccnc12)C12CC3CC(CC(C3)C1)C2 | active: 2.24 µM |
| N=c1n(CCN2CCOCC2)c2ccccc2n1CC(=O)c1ccc(Cl)c(Cl)c1 | inconclusive: 6.31 µM [inhibitor, single point] |
| CC(C)COCC(CN(Cc1ccccc1)c1ccccc1)N1CCCC1 (stereo not given) | inactive and inconclusive: 12.6 µM [inhibitor, single point] |
| O=C(NCCCCc1ccccc1)c1ccc(Br)o1 | inconclusive: 12.6 µM [activator, single point] |
| CC(C)(C)OC(=O)[C@H](Cc1ccccc1)NC(=O)c1[nH]cnc1C(=O)Nc1cccc(Cl)c1 | active: 4.47 µM |
| CN(C(=S)NC1=CCS(=O)(=O)C1)C1CCCCC1 | inconclusive: 20 µM [inhibitor, single point] |
| Cc1csc(NC(=O)c2ccc(N3CCCC3=O)cc2)n1 | active: 2.51 µM |
| Cc1ccc(NCC(=O)Nc2cccc(S(=O)(=O)N(C)C)c2)c(Cl)c1 | inconclusive: 15.8 µM [activator, partial curve] |
| CCn1nccc1C(=O)Nc1nc2ccccc2n1CCN1CCCCC1 | active: 15.8 µM |
| COc1ccccc1Cn1c(=S)[nH]c2cc(C(=O)N3CCCC3)ccc2c1=O | inconclusive: 12.6 µM [inhibitor, single point] |
| COc1ccccc1-c1nc(=S)c(C(C)=O)c(C)[nH]1 | active: 5.62 µM |
| COc1ccc(/C=C/C(=O)c2cc(F)ccc2OC(=O)c2ccccc2C)cc1OC | inconclusive: 22.4 µM [inhibitor, single point] |
